± gives the standard deviation of the averaged measurements. The list shows a part of the results, in another mix than the full data.
Compound: Nc1ncnc2c1ncn2[C@@H]1O[C@H](COP(=O)(O)OP(=O)(O)OP(=O)(O)O)[C@@H](O)[C@H]1O [adenosine triphosphate]
Test: NP40-soluble protein abundance relative to vehicle (solubility fold change) (ratio); higher = more soluble protein in presence of ATP
How it was run: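 Each value is a fold change relative to the detergent-processed vehicle, calculated per replicate from vsn-normalised intensities. Jurkat crude lysate received eight concentrations (0.1 to 10 mM) for 10 min at room temperature and 3 min at 37 °C, then was solubilised in 0.8% NP40 with benzonase (60 min, 4 °C). The ultracentrifuged supernatant was TMT-labelled and run by LC-MS/MS in three independent experiments.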

By UniProt entry, the sequences of proteins in these tests, tags left out. Where a name states a change or a piece, a line headed by the entry shows the natural chain unless it says otherwise.
UniProt Q08945, whole entry: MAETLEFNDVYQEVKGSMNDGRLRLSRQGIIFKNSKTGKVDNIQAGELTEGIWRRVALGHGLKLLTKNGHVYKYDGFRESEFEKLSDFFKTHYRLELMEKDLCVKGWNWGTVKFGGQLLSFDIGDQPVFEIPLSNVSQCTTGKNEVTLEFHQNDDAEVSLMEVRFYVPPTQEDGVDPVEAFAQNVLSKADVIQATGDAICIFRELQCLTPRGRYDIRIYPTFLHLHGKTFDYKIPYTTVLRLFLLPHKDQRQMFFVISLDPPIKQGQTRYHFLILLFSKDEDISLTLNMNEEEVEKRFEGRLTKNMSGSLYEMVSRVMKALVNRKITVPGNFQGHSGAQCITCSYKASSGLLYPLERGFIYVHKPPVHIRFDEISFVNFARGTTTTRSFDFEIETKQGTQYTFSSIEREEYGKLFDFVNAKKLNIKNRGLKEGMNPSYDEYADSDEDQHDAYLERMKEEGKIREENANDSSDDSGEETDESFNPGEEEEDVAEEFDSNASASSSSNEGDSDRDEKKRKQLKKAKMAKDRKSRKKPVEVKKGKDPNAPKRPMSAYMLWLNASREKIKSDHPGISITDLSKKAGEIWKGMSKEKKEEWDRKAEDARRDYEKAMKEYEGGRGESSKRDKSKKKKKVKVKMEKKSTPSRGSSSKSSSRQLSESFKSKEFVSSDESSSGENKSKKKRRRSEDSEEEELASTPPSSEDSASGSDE
UniProt Q13625: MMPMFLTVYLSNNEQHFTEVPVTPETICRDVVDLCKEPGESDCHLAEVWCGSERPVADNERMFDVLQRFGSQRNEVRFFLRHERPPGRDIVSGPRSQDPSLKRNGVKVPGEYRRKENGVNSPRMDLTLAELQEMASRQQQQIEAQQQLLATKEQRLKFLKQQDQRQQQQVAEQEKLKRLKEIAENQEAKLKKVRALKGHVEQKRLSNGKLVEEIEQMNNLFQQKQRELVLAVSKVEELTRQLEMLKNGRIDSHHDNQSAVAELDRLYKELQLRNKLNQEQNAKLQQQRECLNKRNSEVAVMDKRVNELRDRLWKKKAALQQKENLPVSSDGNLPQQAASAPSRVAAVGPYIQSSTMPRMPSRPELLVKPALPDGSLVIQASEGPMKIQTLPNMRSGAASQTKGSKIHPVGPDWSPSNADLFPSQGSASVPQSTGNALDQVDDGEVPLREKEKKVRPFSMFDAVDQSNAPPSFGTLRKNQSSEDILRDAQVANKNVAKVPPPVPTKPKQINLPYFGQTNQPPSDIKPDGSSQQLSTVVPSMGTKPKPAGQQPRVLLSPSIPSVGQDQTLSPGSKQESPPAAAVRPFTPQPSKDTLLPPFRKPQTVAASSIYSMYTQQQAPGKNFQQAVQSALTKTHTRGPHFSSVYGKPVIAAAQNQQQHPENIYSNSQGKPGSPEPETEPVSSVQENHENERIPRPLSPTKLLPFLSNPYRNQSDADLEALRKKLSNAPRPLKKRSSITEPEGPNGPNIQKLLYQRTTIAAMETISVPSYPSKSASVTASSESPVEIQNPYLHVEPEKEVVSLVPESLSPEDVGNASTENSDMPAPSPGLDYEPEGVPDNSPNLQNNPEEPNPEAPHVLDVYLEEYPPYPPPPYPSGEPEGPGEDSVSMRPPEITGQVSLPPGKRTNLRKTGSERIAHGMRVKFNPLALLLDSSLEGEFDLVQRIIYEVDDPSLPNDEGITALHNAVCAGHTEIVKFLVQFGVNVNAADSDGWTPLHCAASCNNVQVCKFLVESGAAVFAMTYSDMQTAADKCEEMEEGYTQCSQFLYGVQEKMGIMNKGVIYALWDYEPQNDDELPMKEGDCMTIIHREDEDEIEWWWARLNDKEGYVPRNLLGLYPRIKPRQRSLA
UniProt Q06546: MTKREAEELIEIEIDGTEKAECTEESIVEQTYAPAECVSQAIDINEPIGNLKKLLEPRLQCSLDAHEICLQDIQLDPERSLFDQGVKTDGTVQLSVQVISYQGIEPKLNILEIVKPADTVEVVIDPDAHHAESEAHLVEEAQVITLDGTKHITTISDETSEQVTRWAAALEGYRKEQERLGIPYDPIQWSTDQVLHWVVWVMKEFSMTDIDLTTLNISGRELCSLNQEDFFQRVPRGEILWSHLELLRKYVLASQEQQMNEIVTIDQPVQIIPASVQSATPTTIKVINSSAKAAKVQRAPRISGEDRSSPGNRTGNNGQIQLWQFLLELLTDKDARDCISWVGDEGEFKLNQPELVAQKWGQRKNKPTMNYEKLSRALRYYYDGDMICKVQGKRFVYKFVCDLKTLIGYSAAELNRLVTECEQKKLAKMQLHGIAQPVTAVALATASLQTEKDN
UniProt Q12824, whole entry: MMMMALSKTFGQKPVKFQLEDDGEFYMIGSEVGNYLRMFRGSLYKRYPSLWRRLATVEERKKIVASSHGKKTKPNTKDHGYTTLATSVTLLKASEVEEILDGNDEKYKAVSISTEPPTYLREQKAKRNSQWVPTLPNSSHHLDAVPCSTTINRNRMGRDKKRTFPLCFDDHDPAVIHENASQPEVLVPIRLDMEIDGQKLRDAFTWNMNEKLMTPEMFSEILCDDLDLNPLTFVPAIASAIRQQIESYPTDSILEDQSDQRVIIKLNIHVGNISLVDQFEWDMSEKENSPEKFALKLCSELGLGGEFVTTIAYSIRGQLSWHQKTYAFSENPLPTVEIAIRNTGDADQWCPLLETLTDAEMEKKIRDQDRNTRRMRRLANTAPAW
UniProt Q13308: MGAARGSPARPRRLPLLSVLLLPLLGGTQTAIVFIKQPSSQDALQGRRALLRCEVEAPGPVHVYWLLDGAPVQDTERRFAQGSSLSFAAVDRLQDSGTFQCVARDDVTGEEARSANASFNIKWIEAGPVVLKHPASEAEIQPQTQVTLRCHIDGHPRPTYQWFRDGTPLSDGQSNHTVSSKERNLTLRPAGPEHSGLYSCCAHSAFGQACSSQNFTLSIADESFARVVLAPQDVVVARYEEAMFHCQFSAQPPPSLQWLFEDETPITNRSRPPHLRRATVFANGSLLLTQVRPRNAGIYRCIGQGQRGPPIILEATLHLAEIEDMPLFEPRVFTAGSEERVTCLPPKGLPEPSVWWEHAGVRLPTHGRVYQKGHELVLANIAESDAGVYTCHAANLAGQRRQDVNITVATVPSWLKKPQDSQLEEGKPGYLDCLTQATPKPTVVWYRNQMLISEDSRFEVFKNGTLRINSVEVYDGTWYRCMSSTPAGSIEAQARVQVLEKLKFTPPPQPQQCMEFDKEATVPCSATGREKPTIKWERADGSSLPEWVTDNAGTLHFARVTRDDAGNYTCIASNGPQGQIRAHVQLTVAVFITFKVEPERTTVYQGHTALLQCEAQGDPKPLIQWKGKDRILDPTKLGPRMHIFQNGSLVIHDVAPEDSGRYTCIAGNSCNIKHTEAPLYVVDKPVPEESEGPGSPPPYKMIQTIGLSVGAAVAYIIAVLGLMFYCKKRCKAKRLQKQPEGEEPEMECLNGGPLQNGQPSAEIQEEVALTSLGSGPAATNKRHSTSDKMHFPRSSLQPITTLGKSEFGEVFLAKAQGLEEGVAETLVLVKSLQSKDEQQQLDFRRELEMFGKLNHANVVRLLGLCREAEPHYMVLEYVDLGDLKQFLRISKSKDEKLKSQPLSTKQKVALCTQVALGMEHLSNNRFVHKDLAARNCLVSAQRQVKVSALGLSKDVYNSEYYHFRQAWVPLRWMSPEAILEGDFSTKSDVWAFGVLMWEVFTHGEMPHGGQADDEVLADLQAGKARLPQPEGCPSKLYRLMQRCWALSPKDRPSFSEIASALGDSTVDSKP
UniProt Q13838, whole entry: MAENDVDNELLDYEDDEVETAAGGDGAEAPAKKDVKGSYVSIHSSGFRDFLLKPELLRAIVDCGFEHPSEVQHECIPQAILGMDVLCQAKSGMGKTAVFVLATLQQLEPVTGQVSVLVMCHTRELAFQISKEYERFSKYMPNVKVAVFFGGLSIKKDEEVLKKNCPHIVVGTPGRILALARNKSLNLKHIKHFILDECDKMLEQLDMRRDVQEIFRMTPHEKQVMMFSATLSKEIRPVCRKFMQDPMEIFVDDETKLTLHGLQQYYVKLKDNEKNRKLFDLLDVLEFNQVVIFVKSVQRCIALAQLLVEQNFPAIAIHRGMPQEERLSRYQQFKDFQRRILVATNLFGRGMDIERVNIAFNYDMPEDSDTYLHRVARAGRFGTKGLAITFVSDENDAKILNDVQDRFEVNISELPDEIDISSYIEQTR
UniProt Q12904: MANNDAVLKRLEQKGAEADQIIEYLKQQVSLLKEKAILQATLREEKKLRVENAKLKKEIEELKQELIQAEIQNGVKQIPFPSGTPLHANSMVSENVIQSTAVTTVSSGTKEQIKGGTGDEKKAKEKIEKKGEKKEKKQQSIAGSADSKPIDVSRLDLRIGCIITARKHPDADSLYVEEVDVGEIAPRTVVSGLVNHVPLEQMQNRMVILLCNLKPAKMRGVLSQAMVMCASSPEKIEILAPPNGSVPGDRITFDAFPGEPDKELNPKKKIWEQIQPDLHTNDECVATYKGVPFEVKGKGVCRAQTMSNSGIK
UniProt Q07820, whole entry: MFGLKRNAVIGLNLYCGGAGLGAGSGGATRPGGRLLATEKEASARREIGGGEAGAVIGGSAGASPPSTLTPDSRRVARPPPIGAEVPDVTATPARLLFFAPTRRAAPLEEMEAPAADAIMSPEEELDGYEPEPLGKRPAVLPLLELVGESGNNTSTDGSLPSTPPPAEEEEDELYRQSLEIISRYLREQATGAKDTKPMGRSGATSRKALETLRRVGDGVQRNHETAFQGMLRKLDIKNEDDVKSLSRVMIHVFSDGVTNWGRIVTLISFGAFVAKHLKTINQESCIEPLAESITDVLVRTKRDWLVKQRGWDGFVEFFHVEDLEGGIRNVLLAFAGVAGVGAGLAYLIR
UniProt Q13043: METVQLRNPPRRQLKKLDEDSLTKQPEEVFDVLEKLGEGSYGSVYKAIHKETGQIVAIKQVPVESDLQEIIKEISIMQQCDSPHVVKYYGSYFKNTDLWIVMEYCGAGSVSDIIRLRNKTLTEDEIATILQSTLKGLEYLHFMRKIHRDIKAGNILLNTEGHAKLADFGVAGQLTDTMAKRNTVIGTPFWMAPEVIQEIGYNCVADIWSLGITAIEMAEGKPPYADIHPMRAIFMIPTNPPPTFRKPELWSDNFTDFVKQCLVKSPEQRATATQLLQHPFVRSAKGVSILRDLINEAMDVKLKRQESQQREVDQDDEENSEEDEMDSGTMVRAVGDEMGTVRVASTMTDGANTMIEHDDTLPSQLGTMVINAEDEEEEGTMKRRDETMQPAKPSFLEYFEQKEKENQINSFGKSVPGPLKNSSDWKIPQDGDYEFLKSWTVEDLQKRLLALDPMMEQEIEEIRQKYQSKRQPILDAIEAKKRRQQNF
UniProt Q96PN7: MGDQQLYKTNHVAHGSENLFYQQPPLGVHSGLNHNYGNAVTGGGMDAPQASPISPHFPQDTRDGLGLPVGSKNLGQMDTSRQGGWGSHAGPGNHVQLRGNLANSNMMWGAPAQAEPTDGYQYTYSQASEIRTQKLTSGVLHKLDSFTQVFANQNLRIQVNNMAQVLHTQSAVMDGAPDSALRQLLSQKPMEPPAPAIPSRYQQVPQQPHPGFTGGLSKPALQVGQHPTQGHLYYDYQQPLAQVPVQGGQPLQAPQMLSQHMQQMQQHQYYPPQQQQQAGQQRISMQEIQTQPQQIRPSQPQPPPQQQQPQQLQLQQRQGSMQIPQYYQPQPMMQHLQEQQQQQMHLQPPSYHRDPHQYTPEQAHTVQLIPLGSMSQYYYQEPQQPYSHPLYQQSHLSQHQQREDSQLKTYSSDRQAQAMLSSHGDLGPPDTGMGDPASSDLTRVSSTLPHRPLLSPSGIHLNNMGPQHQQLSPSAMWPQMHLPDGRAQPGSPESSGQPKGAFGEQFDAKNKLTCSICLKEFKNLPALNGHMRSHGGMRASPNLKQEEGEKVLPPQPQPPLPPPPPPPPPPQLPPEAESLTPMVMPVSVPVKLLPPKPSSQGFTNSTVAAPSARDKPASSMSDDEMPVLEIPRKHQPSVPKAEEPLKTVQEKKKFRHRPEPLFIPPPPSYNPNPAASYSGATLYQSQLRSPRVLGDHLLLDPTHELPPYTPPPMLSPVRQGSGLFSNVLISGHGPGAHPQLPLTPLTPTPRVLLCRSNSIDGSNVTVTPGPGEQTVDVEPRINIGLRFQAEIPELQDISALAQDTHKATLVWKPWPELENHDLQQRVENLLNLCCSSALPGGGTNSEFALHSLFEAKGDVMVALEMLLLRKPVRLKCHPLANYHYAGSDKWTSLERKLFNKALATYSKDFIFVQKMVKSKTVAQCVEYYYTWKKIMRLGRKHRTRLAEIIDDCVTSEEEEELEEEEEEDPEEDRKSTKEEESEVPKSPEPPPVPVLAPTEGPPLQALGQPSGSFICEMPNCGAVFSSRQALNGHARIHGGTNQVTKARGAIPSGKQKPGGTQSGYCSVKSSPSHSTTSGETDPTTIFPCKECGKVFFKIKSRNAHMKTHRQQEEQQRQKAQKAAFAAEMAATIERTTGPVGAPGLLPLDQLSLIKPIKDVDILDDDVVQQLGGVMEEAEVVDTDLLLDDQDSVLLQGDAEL

Target	NP40-soluble protein abundance (concentration: 1mM)	NP40-soluble protein abundance (concentration: 2mM)	NP40-soluble protein abundance (concentration: 4mM)	NP40-soluble protein abundance (concentration: 6mM)	NP40-soluble protein abundance (concentration: 8mM)	NP40-soluble protein abundance (concentration: 10mM)
HSPA14 (UniProt Q0VDF9)	1 ± 0.029	0.997 ± 0.029	0.979 ± 0.036	0.964 ± 0.028	0.965 ± 0.043	0.977 ± 0.026
BLMH (UniProt Q13867)	1 ± 0.1	0.973 ± 0.086	0.942 ± 0.09	0.9 ± 0.12	0.996 ± 0.046	0.95 ± 0.062
UniProt Q14103-3|Q14103-4|D6RF44	0.992 ± 0.071	0.933 ± 0.062	0.894 ± 0.091	0.941 ± 0.072	0.932 ± 0.017	0.942 ± 0.021
NSUN2 (UniProt Q08J23)	1.06 ± 0.058	1.04 ± 0.033	1.09 ± 0.02	1.11 ± 0.051	1.18 ± 0.028	1.2 ± 0.051
UniProt Q13615 and related entries	0.994 ± 0.08	1.01 ± 0.087	0.994 ± 0.025	1.03 ± 0.029	0.975 ± 0.034	0.977 ± 0.052
UniProt Q13627-2	1.17 ± 0.054	1.17 ± 0.024	1.19 ± 0.017	1.19 ± 0.015	1.214 ± 0.0054	1.22 ± 0.05
SSRP1 (UniProt Q08945)	0.994 ± 0.051	1.02 ± 0.02	1.02 ± 0.035	1.12 ± 0.051	1.187 ± 0.0031	1.34 ± 0.066
SCRN1 (UniProt Q12765)	1.01 ± 0.069	1 ± 0.07	0.977 ± 0.072	1 ± 0.089	0.995 ± 0.08	0.979 ± 0.07
KHDRBS1 (UniProt Q07666)	0.928 ± 0.12	1.13 ± 0.18	0.962 ± 0.16	1.22 ± 0.12	1.09 ± 0.072	1.02 ± 0.18
EIF4EBP2 (UniProt Q13542)	1.05 ± 0.21	1.03 ± 0.21	0.994 ± 0.11	1.04 ± 0.15	1.01 ± 0.16	0.979 ± 0.073
GBE1 (UniProt Q04446)	1.02 ± 0.063	1.01 ± 0.039	1.01 ± 0.064	0.983 ± 0.073	0.998 ± 0.061	1.01 ± 0.062
NCBP1 (UniProt Q09161)	1.09 ± 0.053	1.12 ± 0.07	1.16 ± 0.031	1.18 ± 0.059	1.21 ± 0.065	1.21 ± 0.076
CENPE (UniProt Q02224)	0.939 ± 0.044	0.907 ± 0.012	0.909 ± 0.032	0.936 ± 0.058	0.922 ± 0.048	0.884 ± 0.016
UniProt Q14141	0.9784 ± 0.0063	0.945 ± 0.029	0.92 ± 0.017	0.958 ± 0.045	0.932 ± 0.037	0.917 ± 0.058
PPAT (UniProt Q06203)	0.983 ± 0.084	0.975 ± 0.071	0.951 ± 0.058	0.892 ± 0.068	0.962 ± 0.035	0.967 ± 0.06
UniProt Q04323 and related entries	0.922 ± 0.033	0.879 ± 0.028	0.914 ± 0.019	0.878 ± 0.041	0.949 ± 0.026	0.869 ± 0.088
HMGCS1 (UniProt Q01581)	0.965 ± 0.079	0.965 ± 0.045	0.927 ± 0.044	0.942 ± 0.086	0.934 ± 0.04	0.941 ± 0.032
UniProt Q02086 and related entries	1 ± 0.027	1.04 ± 0.075	0.974 ± 0.028	0.994 ± 0.052	0.933 ± 0.068	0.968 ± 0.022
UniProt Q02083 and related entries	0.977 ± 0.12	0.999 ± 0.026	0.949 ± 0.069	0.952 ± 0.017	0.919 ± 0.11	0.955 ± 0.065
SCARB2 (UniProt Q14108)	0.928 ± 0.066	0.933 ± 0.017	0.923 ± 0.017	0.928 ± 0.008	0.901 ± 0.035	0.85 ± 0.051

Target	NP40-soluble protein abundance (concentration: 1mM)	NP40-soluble protein abundance (concentration: 2mM)	NP40-soluble protein abundance (concentration: 4mM)	NP40-soluble protein abundance (concentration: 6mM)	NP40-soluble protein abundance (concentration: 8mM)	NP40-soluble protein abundance (concentration: 10mM)
MGAT2 (UniProt Q10469)	1.11 ± 0.11	1.03 ± 0.011	1.06 ± 0.024	1.01 ± 0.012	1.01 ± 0.035	1.02 ± 0.035
RPL6 (UniProt Q02878)	1.04 ± 0.051	0.96 ± 0.12	0.948 ± 0.11	0.868 ± 0.095	0.703 ± 0.086	0.913 ± 0.1
UniProt Q13740 and related entries	0.9765 ± 0.0057	0.951 ± 0.012	0.984 ± 0.028	0.971 ± 0.032	0.939 ± 0.016	0.913 ± 0.054
PAK1 (UniProt Q13153)	0.964 ± 0.029	0.958 ± 0.023	0.938 ± 0.008	0.987 ± 0.013	0.948 ± 0.017	0.93 ± 0.038
MRPL49 (UniProt Q13405)	1.02 ± 0.11	0.942 ± 0.15	0.915 ± 0.1	0.947 ± 0.27	0.944 ± 0.21	0.882 ± 0.17
ACACA (UniProt Q13085)	1.05 ± 0.069	1.01 ± 0.064	1.01 ± 0.057	0.934 ± 0.049	1.02 ± 0.017	0.984 ± 0.045
UniProt Q02543 and related entries	0.954 ± 0.073	0.861 ± 0.14	0.823 ± 0.14	0.802 ± 0.18	0.653 ± 0.17	0.869 ± 0.18
FHL3 (UniProt Q13643)	1.05 ± 0.097	1.04 ± 0.096	1.11 ± 0.23	1.12 ± 0.17	1.11 ± 0.21	1.05 ± 0.18
TRIM32 (UniProt Q13049)	0.984 ± 0.034	0.98 ± 0.028	0.988 ± 0.032	0.969 ± 0.053	1.03 ± 0.027	1.06 ± 0.021
UniProt Q13625 and related entries	0.98 ± 0.023	0.986 ± 0.017	0.969 ± 0.024	1 ± 0.024	0.951 ± 0.041	0.979 ± 0.015
UNC119 (UniProt Q13432)	0.938 ± 0.065	0.975 ± 0.072	0.94 ± 0.085	0.953 ± 0.057	0.932 ± 0.025	0.933 ± 0.082
UniProt Q13535 and related entries	0.949 ± 0.18	1.02 ± 0.1	0.955 ± 0.099	1.06 ± 0.069	0.935 ± 0.055	0.971 ± 0.048
GABPA (UniProt Q06546)	0.967 ± 0.024	0.97 ± 0.028	0.94 ± 0.035	0.923 ± 0.071	0.917 ± 0.019	0.939 ± 0.045
UniProt Q13574 and related entries	1.05 ± 0.044	1.05 ± 0.041	1.02 ± 0.03	0.995 ± 0.038	0.97 ± 0.027	0.978 ± 0.043
RING1 (UniProt Q06587)	1.02 ± 0.052	0.999 ± 0.021	1.03 ± 0.031	1.04 ± 0.021	1.01 ± 0.052	1.04 ± 0.028
UniProt Q04724 and related entries	0.901 ± 0.021	1.04 ± 0.14	1.04 ± 0.15	0.953 ± 0.049	0.946 ± 0.12	0.982 ± 0.05
TSTA3 (UniProt Q13630)	0.934 ± 0.057	0.932 ± 0.081	0.946 ± 0.07	0.88 ± 0.06	0.944 ± 0.058	0.956 ± 0.059
UniProt Q12824	1.1 ± 0.023	1.07 ± 0.022	1.08 ± 0.024	1.1 ± 0.075	1.13 ± 0.013	1.12 ± 0.019
UniProt Q09666 and related entries	0.972 ± 0.055	0.96 ± 0.026	0.954 ± 0.037	0.998 ± 0.051	0.925 ± 0.016	0.94 ± 0.014
TRIM28 (UniProt Q13263)	0.977 ± 0.031	0.96 ± 0.041	0.93 ± 0.025	0.971 ± 0.016	0.919 ± 0.0098	0.9307 ± 0.0049

Single entries from the results shown:
UniProt Q13625 and related entries | NP40-soluble protein abundance (concentration: 6mM): 1 ± 0.024
UniProt Q04724 and related entries | NP40-soluble protein abundance (concentration: 1mM): 0.901 ± 0.021
ACACA (UniProt Q13085) | NP40-soluble protein abundance (concentration: 6mM): 0.934 ± 0.049

Next records

Target	NP40-soluble protein abundance (concentration: 1mM)	NP40-soluble protein abundance (concentration: 2mM)	NP40-soluble protein abundance (concentration: 4mM)	NP40-soluble protein abundance (concentration: 6mM)	NP40-soluble protein abundance (concentration: 8mM)	NP40-soluble protein abundance (concentration: 10mM)
SNTB2 (UniProt Q13425)	1 ± 0.031	1.05 ± 0.039	1.02 ± 0.043	1 ± 0.042	1.06 ± 0.072	1.03 ± 0.066
UniProt Q13884 and related entries	0.976 ± 0.12	1.01 ± 0.044	1.06 ± 0.11	0.948 ± 0.15	1.02 ± 0.029	0.985 ± 0.056
PPIL2 (UniProt Q13356)	1.27 ± 0.014	1.277 ± 0.011	1.28 ± 0.023	1.3 ± 0.029	1.32 ± 0.049	1.34 ± 0.032
TMED1 (UniProt Q13445)	1.06 ± 0.12	1.02 ± 0.062	1.03 ± 0.073	0.986 ± 0.12	1 ± 0.056	0.98 ± 0.036
UniProt Q02750	0.949 ± 0.018	0.984 ± 0.042	0.951 ± 0.028	0.956 ± 0.034	0.926 ± 0.021	0.951 ± 0.043
UniProt Q13308 and related entries	0.953 ± 0.023	0.99 ± 0.04	0.98 ± 0.037	0.974 ± 0.042	0.946 ± 0.025	0.951 ± 0.023
UniProt Q13838 and related entries	0.927 ± 0.076	0.913 ± 0.078	0.943 ± 0.051	0.932 ± 0.12	1.04 ± 0.074	1.04 ± 0.072
UniProt Q12904	0.989 ± 0.071	0.947 ± 0.067	0.895 ± 0.054	0.987 ± 0.21	0.944 ± 0.094	0.916 ± 0.074
RBL2 (UniProt Q08999)	1.03 ± 0.092	1.02 ± 0.015	0.999 ± 0.016	1.01 ± 0.034	0.987 ± 0.013	1.03 ± 0.013
MCL1 (UniProt Q07820)	0.916 ± 0.11	0.985 ± 0.12	1.01 ± 0.082	0.907 ± 0.15	0.951 ± 0.12	0.934 ± 0.089
PDAP1 (UniProt Q13442)	0.922 ± 0.2	0.859 ± 0.099	0.902 ± 0.13	1.02 ± 0.17	1.01 ± 0.084	0.994 ± 0.17
UniProt Q14005 and related entries	0.984 ± 0.081	1 ± 0.038	0.979 ± 0.078	0.988 ± 0.063	0.956 ± 0.06	0.972 ± 0.035
DDX10 (UniProt Q13206)	0.961 ± 0.015	0.956 ± 0.046	0.929 ± 0.032	0.967 ± 0.041	0.964 ± 0.041	0.986 ± 0.067
UniProt Q03188	1.02 ± 0.053	1.04 ± 0.032	1.06 ± 0.043	1.08 ± 0.011	0.99 ± 0.022	1.01 ± 0.036
UniProt Q13043	0.971 ± 0.014	0.965 ± 0.019	0.938 ± 0.03	0.979 ± 0.036	0.944 ± 0.039	0.926 ± 0.048
UniProt Q13469 and related entries	0.995 ± 0.048	1.01 ± 0.058	1.01 ± 0.053	1.01 ± 0.084	0.981 ± 0.07	1 ± 0.095
MTM1 (UniProt Q13496)	1.07 ± 0.08	1.06 ± 0.066	1.06 ± 0.072	1 ± 0.092	1.07 ± 0.093	1.01 ± 0.057
PSMD2 (UniProt Q13200)	0.949 ± 0.076	0.891 ± 0.05	0.854 ± 0.028	0.834 ± 0.03	0.898 ± 0.029	0.886 ± 0.064
Q05GC8 and related entries (UniProt Q96PN7+Q05GC8)	1.02 ± 0.066	1.06 ± 0.038	1.12 ± 0.12	1.1603 ± 0.00023	1.09 ± 0.013	1.07 ± 0.07
UniProt Q13033 and related entries	1.01 ± 0.0061	0.995 ± 0.037	0.992 ± 0.031	0.993 ± 0.057	1.01 ± 0.046	1.02 ± 0.043

Source: the supplement of paper PMC6411743
